Measured data: PubChem BioAssay AID652243 (Drosophila RNAi Screening Center, 2013)

- Assay: 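Fly genes required for human androgen receptor driven transcription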 (primary screen)
- System: Drosophila S2R+ cells
- Reagent: long dsRNA against Drosophila genes
- Timing: 72 h (48 h, then 24 h hormone)
- Challenge: synthetic androgen R1881 at 10 nM for 24 h
- Detection: 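Firefly light from an androgen-responsive reporter and Renilla control light per well, raw and unnormalised, for each of two replicates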
- Scale: firefly reporter light: higher = more light from androgen-responsive reporter; Renilla control light: higher = more constitutive control signal (cell number, transfection)
- Active means: 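Across duplicate plates, a knock-down whose log firefly/Renilla ratio shifted a set fold down or up from the GFP/LacZ control mean was a hit; the downward cut appears as both 1.5 and 3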
- Calls: active = hit: reporter lowered or raised; inactive = no hit
The screen tested about 24,000 reagents; this is a random part of those that have a named target and a result. In the full data, 246 (1%) are marked active. 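Plates not normalised; calls are printed but the firefly/Renilla ratio behind them is not deposited; fold cut for lowering reported inconsistently.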 The raw values are shown without normalisation. The numbers tell different reagents against one gene apart. Not given: the amount of reagent.

| gene knocked down | reagent | firefly reporter light, replicate 1 | firefly reporter light, replicate 2 | Renilla control light, replicate 1 | Renilla control light, replicate 2 | outcome |
| --- | --- | --- | --- | --- | --- | --- |
| Ddx1 | 1 | 35800 | 37444 | 2.83e5 | 2.49e5 | inactive |
| bt | 1 | 80479 | 66195 | 7.82e5 | 5.55e5 | inactive |
| bt | 2 | 1.46e5 | 84645 | 7.48e5 | 4.96e5 | inactive |
| bt | 3 | 8.62e5 | 9.23e5 | 2.11e6 | 1.81e6 | inactive |
| bt | 4 | – | – | – | – | inactive |
| PolD3 | 1 | 8.93e5 | 6.27e5 | 2.21e6 | 1.89e6 | inactive |
| PolD3 | 2 | 2.92e5 | 4.45e5 | 3.73e5 | 7.03e5 | inactive |
| Prat2 | 1 | 1.45e6 | 9.42e5 | 1.69e6 | 1.44e6 | inactive |
| S | 1 | 2.03e5 | 1.23e5 | 7.62e5 | 3.94e5 | inactive |
| CG13362 | 1 | 1.64e5 | 1.99e5 | 1.67e6 | 1.45e6 | inactive |
| CG13362 | 2 | 9.25e5 | 7.27e5 | 1.32e6 | 1.08e6 | inactive |
| S-Lap3 | 1 | 5.88e5 | 6.07e5 | 5.48e5 | 5.81e5 | inactive |
| S-Lap3 | 2 | 5.41e5 | 3.37e5 | 7.36e5 | 6.77e5 | inactive |
| Rsbp15 | 1 | 1.58e5 | 1.83e5 | 2.57e6 | 2.61e6 | inactive |
| Rsbp15 | 2 | 4.90e5 | 6.58e5 | 1.62e6 | 1.65e6 | inactive |
| Pino | 1 | 20330 | 20357 | 1.10e5 | 1.26e5 | inactive |
| Pino | 2 | 1.16e6 | 1.11e6 | 3.05e6 | 2.64e6 | inactive |
| Als2 | 1 | 35878 | 42032 | 3.47e5 | 3.39e5 | inactive |
| CG31462 (retired record) | 1 | 38048 | 56338 | 1.43e6 | 1.53e6 | inactive |
| Or67d | 1 | 2.61e5 | 1.53e5 | 1.76e6 | 9.51e5 | inactive |
| rt | 1 | 1.96e5 | 1.34e5 | 1.83e6 | 1.34e6 | inactive |
| Mtpbeta | 1 | 4.72e5 | 1.06e6 | 9.56e5 | 1.59e6 | inactive |
| Prp40 | 1 | 6.38e5 | 5.13e5 | 2.27e6 | 2.13e6 | inactive |
| CG34230 | 1 | 7.22e5 | 7.20e5 | 1.81e6 | 1.64e6 | inactive |
| kek6 | 1 | 31875 | 66710 | 1.10e6 | 1.56e6 | inactive |
| kek6 | 2 | 5.63e5 | 3.89e5 | 6.32e5 | 6.23e5 | inactive |
| l(3)psg2 | 1 | 1.11e6 | 1.05e6 | 1.09e6 | 1.42e6 | inactive |
| l(3)psg2 | 2 | 7.40e5 | 8.78e5 | 8.90e5 | 9.10e5 | inactive |
| CG32971 | 1 | 5.14e5 | 4.64e5 | 9.36e5 | 79119 | inactive |
| ND-42 | 1 | 81921 | 69582 | 4.57e5 | 4.49e5 | inactive |
| ND-42 | 2 | 5.36e5 | 4.89e5 | 9.07e5 | 8.60e5 | inactive |
| Or22c | 1 | 64997 | 68210 | 5.85e5 | 5.72e5 | inactive |
| Or22c | 2 | 3.18e5 | 2.86e5 | 7.89e5 | 6.76e5 | inactive |
| CG12253 | 1 | 1.04e6 | 6.02e5 | 1.70e6 | 1.69e6 | inactive |
| CG12253 | 2 | 2.44e5 | 3.26e5 | 5.67e5 | 7.01e5 | inactive |
| DNAlig1 | 1 | 1.02e6 | 7.75e5 | 1.23e6 | 1.19e6 | inactive |
| CG6908 | 1 | 1.39e5 | 1.62e5 | 2.78e6 | 3.27e6 | inactive |
| CG6908 | 2 | 1.09e6 | 1.10e6 | 9.61e5 | 7.78e5 | inactive |
| Prosbeta4R2 | 1 | 7.34e5 | 6.82e5 | 2.50e6 | 1.72e6 | inactive |
| Prosbeta4R2 | 2 | 6.03e5 | 8.83e5 | 1.13e6 | 1.67e6 | inactive |
| l(1)10Bb | 1 | 4.29e5 | 5.84e5 | 4.08e6 | 3.93e6 | inactive |
| Lipt2 | 1 | 4.16e5 | 4.47e5 | 3.02e6 | 2.94e6 | inactive |
| Lipt2 | 2 | 8.92e5 | 6.66e5 | 1.42e6 | 1.55e6 | inactive |
| CG15522 | 1 | 1.73e5 | 1.11e5 | 1.68e6 | 1.92e6 | inactive |
| CG15522 | 2 | 6.19e5 | 6.59e5 | 1.81e6 | 1.81e6 | inactive |
| CG1907 | 1 | 89630 | 89701 | 1.32e6 | 9.55e5 | active |
| Elp2 | 1 | 9.64e5 | 1.45e6 | 1.79e6 | 1.99e6 | inactive |
| CG11583 | 1 | 6.22e5 | 6.11e5 | 1.70e6 | 1.80e6 | inactive |
| CG11583 | 2 | 3.03e5 | 2.77e5 | 6.51e5 | 6.88e5 | inactive |
| Urod | 1 | 4.12e5 | 2.83e5 | 2.21e6 | 1.87e6 | inactive |
| Urod | 2 | 4.90e5 | 4.36e5 | 1.07e6 | 8.01e5 | inactive |
| CG31855 | 1 | 1.47e5 | 1.66e5 | 7.48e5 | 9.48e5 | inactive |
| CG31855 | 2 | 6.48e5 | 7.61e5 | 1.02e6 | 9.98e5 | inactive |
| CG18336 | 1 | 2.98e5 | 2.09e5 | 1.71e6 | 1.35e6 | inactive |
| CG9016 | 1 | 1.30e5 | 1.79e5 | 1.69e6 | 1.54e6 | inactive |
| CG9016 | 2 | 8.17e5 | 7.69e5 | 8.85e5 | 1.20e6 | inactive |
| Snap24 | 1 | 93662 | 80069 | 1.51e6 | 1.75e6 | inactive |
| Naa20A | 1 | 43954 | 70718 | 4.27e5 | 4.64e5 | inactive |
